The list is a part of this screen's results and no random one: it is rich in T/C values a quarter to a half above the control, in often repeated tests (any T/C) and in doses without a T/C. Other doses and runs of a compound stand elsewhere. T/C: endpoint of the treated group in % of that of the vehicle group. Some doses have a count of surviving animals in place of a T/C: the source files T/C as zero there, which appears to mark a toxic dose or a test without result, not a measured value. Some survivor counts are full or nearly so, which does not show that the dose was tolerated: survival well below the control is almost never listed, so the zero probably covers shortened survival too. Survivors were counted at the toxicity check, usually on the fifth day, unless a day is given; later deaths do not show. Schedules are NCI's codes, read here as Q, the interval in days (D) or hours (H), X, the number of doses. Some doses were run more than once; the results are listed from low to high. Some structures stand for samples that the source files as different forms (salt, stereo form or complex); doses refer to the form tested. For survival time, this PubChem deposit counts one and a half times the control or more as active, and values a quarter to a half above the control carry no call in these data; other NCI protocols may use other cut-offs. Some T/C values carry the count of animals alive at the toxicity check (mostly the fifth day); where none is given, no animal had died by that day.
Test system: CD2F1 mice, L1210 leukemia ip, survival T/C
Experiment: NCI In Vivo Anticancer Drug Screen. Data for tumor model L1210 Leukemia (intraperitoneal) in CD2F1 (CDF1) mice
Conditions: higher T/C = longer survival
In short: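 Tumor-bearing mice (transplanted tumor) were split into treated and vehicle control groups, and the measured endpoint of each treated group was divided by that of its vehicle controls.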

[1] = T/C endpoint: mean survival time, dose: 200.0 mg/kg/injection, schedule: Q04DX003 (ip), vehicle: saline with Tween-80
[2] = T/C endpoint: mean survival time, dose: 400.0 mg/kg/injection, schedule: Q04DX003 (ip), vehicle: saline with Tween-80
[3] = T/C endpoint: mean survival time, dose: 100.0 mg/kg/injection, schedule: Q04DX003 (ip), vehicle: saline with Tween-80
[4] = T/C endpoint: mean survival time, dose: 25.0 mg/kg/injection, schedule: Q01DX009 (ip), vehicle: saline with Tween-80
[5] = T/C endpoint: mean survival time, dose: 400.0 mg/kg/injection, schedule: Q04DX003 (ip), vehicle: saline
[6] = T/C endpoint: mean survival time, dose: 100.0 mg/kg/injection, schedule: Q01DX009 (ip), vehicle: saline with Tween-80
[7] = T/C endpoint: mean survival time, dose: 200.0 mg/kg/injection, schedule: Q04DX002 (ip), vehicle: saline with Tween-80
[8] = T/C endpoint: mean survival time, dose: 400.0 mg/kg/injection, schedule: Q04DX003 (ip), vehicle: Klucel (hydroxypropylcellulose) (HPC)
[9] = T/C endpoint: mean survival time, dose: 150.0 mg/kg/injection, schedule: Q01DX009 (ip), vehicle: saline
[10] = T/C endpoint: mean survival time, dose: 300.0 mg/kg/injection, schedule: Q01DX001 (ip), vehicle: saline
[11] = T/C endpoint: mean survival time, dose: 100.0 mg/kg/injection, schedule: Q04DX003 (ip), vehicle: saline

COC1OC(CO)C(O)C(NC(=O)N(C)N=O)C1O (stereo not drawn)
T/C (T/C endpoint: mean survival time, dose: 25.0 mg/kg/injection, schedule: Q01DX009 (ip), vehicle: saline): 128 % of control
T/C (T/C endpoint: mean survival time, dose: 50.0 mg/kg/injection, schedule: Q01DX009 (ip), vehicle: saline): 130 and 143 % of control
T/C (T/C endpoint: mean survival time, dose: 100.0 mg/kg/injection, schedule: Q01DX009 (ip), vehicle: saline): 142 % of control
T/C (T/C endpoint: median survival time, dose: 25.0 mg/kg/injection, schedule: Q01DX009 (ip), vehicle: saline): 139 % of control
T/C (T/C endpoint: median survival time, dose: 50.0 mg/kg/injection, schedule: Q01DX009 (ip), vehicle: saline): 126 [5 of 6 alive] and 149 % of control
T/C (T/C endpoint: median survival time, dose: 144.0 mg/kg/injection, schedule: Q01DX005 (ip), vehicle: saline): 140 % of control
T/C (T/C endpoint: median survival time, dose: 666.66 mg/kg/injection, schedule: Q01DX005 (ip), vehicle: saline): 145 % of control
survivor count (T/C endpoint: median survival time, dose: 1111.11 mg/kg/injection, schedule: Q01DX005 (ip), vehicle: saline): 4 of 6

CC(C)(C)OC(=O)N1CCCC1C(=O)Oc1ccc([N+](=O)[O-])cc1 (stereo not drawn)
survivor count [1]: 6 of 6
survivor count [2]: 6 of 6

C[S+](C)CCCNC(=O)c1csc(CCNC(=O)c2ccccc2)n1
survivor count [3]: 5 of 6
survivor count [1]: 0 of 6
survivor count [2]: 1 of 6

Cn1nc(-c2ccccc2)nc1[N+](=O)[O-]
T/C [4]: 125 % of control

COc1cc2ccc3cnccc3c2cc1OC
survivor count (T/C endpoint: mean survival time, dose: 400.0 mg/kg/injection, schedule: Q01DX009 (ip), vehicle: Klucel (hydroxypropylcellulose) (HPC)): 1 of 6

NC1CCCCC1N.O=S(=O)([O-])c1cccc(S(=O)(=O)[O-])c1.[Pt+4]
T/C (T/C endpoint: median survival time, dose: 1.56 mg/kg/injection, schedule: Q04DX003 (ip), vehicle: saline with Tween-80): 125 % of control
T/C (T/C endpoint: median survival time, dose: 6.25 mg/kg/injection, schedule: Q04DX003 (ip), vehicle: saline with Tween-80): 148 % of control
survivor count (T/C endpoint: median survival time, dose: 100.0 mg/kg/injection, schedule: Q04DX003 (ip), vehicle: saline with Tween-80): 5 of 6 and 6 of 6
survivor count (T/C endpoint: median survival time, dose: 200.0 mg/kg/injection, schedule: Q04DX003 (ip), vehicle: saline with Tween-80): 4 of 6

CC12CCCC1=[N+]1CCCCC1CC2=O (stereo not drawn)
survivor count [5]: 0 of 6

CCCC(CCC)=NN=C(CCC)CCC
survivor count (T/C endpoint: mean survival time, dose: 400.0 mg/kg/injection, schedule: Q04DX002 (ip), vehicle: saline + alcohol): 3 of 3

NC(=O)N/N=C/c1cccs1
survivor count [6]: 3 of 3
survivor count [3]: 3 of 3

CC(C)c1oc(=O)cc2c1C(O)C1OC(=O)C3(C)C(O)C4OC4C2(C)C13 (stereo not drawn) (tested in a mixture with another compound)
survivor count [7]: 0 of 3
survivor count (T/C endpoint: mean survival time, dose: 400.0 mg/kg/injection, schedule: Q04DX002 (ip), vehicle: saline with Tween-80): 0 of 3

C(=C\c1ccccc1)/C[P+](c1ccccc1)(c1ccccc1)c1ccccc1
survivor count [3]: 0 of 6
survivor count [1]: 0 of 6
survivor count [2]: 0 of 6

O=c1[nH]c2ccccc2nc1C(Cl)Cl
survivor count (T/C endpoint: mean survival time, dose: 200.0 mg/kg/injection, schedule: Q01DX009 (ip), vehicle: Klucel (hydroxypropylcellulose) (HPC)): 2 of 6
survivor count [8]: 1 of 6
survivor count (T/C endpoint: median survival time, dose: 400.0 mg/kg/injection, schedule: Q04DX003 (ip), vehicle: Klucel (hydroxypropylcellulose) (HPC)): 2 of 6

CC(C)COP(=O)(OCC(C)C)OCC(C)C
survivor count [2]: 0 of 6

O=C(CC1(Cl)C(F)(F)C(F)(F)C1(F)F)c1ccccc1
survivor count (T/C endpoint: mean survival time, dose: 200.0 mg/kg/injection, schedule: Q01DX001 (ip), vehicle: saline with Tween-80): 0 of 6
survivor count (T/C endpoint: mean survival time, dose: 400.0 mg/kg/injection, schedule: Q01DX001 (ip), vehicle: saline with Tween-80): 0 of 6

CN1CCC(Br)(C(=O)c2ccccc2)CC1
survivor count (T/C endpoint: mean survival time, dose: 300.0 mg/kg/injection, schedule: Q04DX003 (ip), vehicle: saline with Tween-80): 0 of 6

CC#CC(=O)SCCNC(=O)CC
survivor count [6]: 5 of 6
survivor count [1]: 0 of 6

N/C=N/O
T/C [9]: 126 % of control
T/C (T/C endpoint: mean survival time, dose: 200.0 mg/kg/injection, schedule: Q01DX009 (ip), vehicle: saline): 133 % of control
survivor count (T/C endpoint: mean survival time, dose: 600.0 mg/kg/injection, schedule: Q01DX009 (ip), vehicle: saline): 0 of 6

Nc1ccn(C2OC(COP(=O)(O)O)C(O)C2O)c(=O)n1 (stereo not drawn)
T/C (T/C endpoint: mean survival time, dose: 16.0 mg/kg/injection, schedule: Q01DX008 (oral), vehicle: saline): 131 % of control
T/C (T/C endpoint: mean survival time, dose: 32.0 mg/kg/injection, schedule: Q01DX008 (oral), vehicle: saline): 143 % of control
T/C (T/C endpoint: mean survival time, dose: 32.0 mg/kg/injection, schedule: Q04DX003 (ip), vehicle: saline): 137 % of control
T/C (T/C endpoint: mean survival time, dose: 64.0 mg/kg/injection, schedule: Q04DX003 (ip), vehicle: saline): 144 % of control
T/C (T/C endpoint: mean survival time, dose: 128.0 mg/kg/injection, schedule: Q01DX009 (ip), vehicle: saline): 134 % of control
T/C (T/C endpoint: mean survival time, dose: 128.0 mg/kg/injection, schedule: Q04DX003 (ip), vehicle: saline): 141 % of control
T/C (T/C endpoint: mean survival time, dose: 256.0 mg/kg/injection, schedule: Q04DX003 (ip), vehicle: saline): 148 % of control
T/C (T/C endpoint: mean survival time, dose: 512.0 mg/kg/injection, schedule: Q01DX001 (ip), vehicle: saline): 135 % of control
T/C (T/C endpoint: mean survival time, dose: 512.0 mg/kg/injection, schedule: Q04DX003 (oral), vehicle: saline): 145 % of control

COc1ccc(C(O)(c2ccccc2)C(O)c2ccccc2)cc1 (stereo not drawn)
survivor count [3]: 6 of 6
survivor count [1]: 6 of 6

CC(CN=[N+]=[N-])OC(=O)C(F)(F)F (stereo not drawn)
survivor count [9]: 0 of 6
survivor count [10]: 2 of 6

CC(C)(C)CC(C)(C)SSc1n[nH]c(=S)s1
survivor count (T/C endpoint: mean survival time, dose: 20.0 mg/kg/injection, schedule: Q04DX003 (ip), vehicle: Klucel (hydroxypropylcellulose) (HPC)): 4 of 6
survivor count (T/C endpoint: mean survival time, dose: 40.0 mg/kg/injection, schedule: Q04DX003 (ip), vehicle: Klucel (hydroxypropylcellulose) (HPC)): 0 of 6
survivor count (T/C endpoint: mean survival time, dose: 100.0 mg/kg/injection, schedule: Q04DX003 (ip), vehicle: Klucel (hydroxypropylcellulose) (HPC)): 0 of 6
survivor count (T/C endpoint: mean survival time, dose: 200.0 mg/kg/injection, schedule: Q04DX003 (ip), vehicle: Klucel (hydroxypropylcellulose) (HPC)): 0 of 6
survivor count [8]: 0 of 6

COc1ccc(Nc2nc(N)nc3c2ncn3C2OC(CO)C(O)C2O)cc1 (stereo not drawn)
survivor count (T/C endpoint: mean survival time, dose: 200.0 mg/kg/injection, schedule: Q01DX005 (ip), vehicle: distilled water + Tween-80): 0 of 6

NNC(=O)c1cc(NN)ccn1
survivor count (T/C endpoint: mean survival time, dose: 200.0 mg/kg/injection, schedule: Q01DX009 (ip), vehicle: saline with Tween-80): 1 of 6
survivor count [2]: 6 of 6

CSc1nnc(Sc2ccccc2)c(SC)n1
survivor count [10]: 3 of 6

CCCCCC(C)(C#N)CCCCC
survivor count (T/C endpoint: mean survival time, dose: 400.0 mg/kg/injection, schedule: Q01DX009 (ip), vehicle: saline with Tween-80): 6 of 6

CC(=O)Oc1cc2c3c(c1)CCCN3CCC2
survivor count (T/C endpoint: mean survival time, dose: 10.0 mg/kg/injection, schedule: Q04DX003 (ip), vehicle: saline): 2 of 6
survivor count (T/C endpoint: mean survival time, dose: 20.0 mg/kg/injection, schedule: Q04DX003 (ip), vehicle: saline): 0 of 6
survivor count [4]: 3 of 6
survivor count [3]: 0 of 6
survivor count [1]: 0 of 6
survivor count [2]: 0 of 6

CC(C)OC(=O)N1C(=O)C2C3CCC(O3)C2C1=O (stereo not drawn)
survivor count [7]: 3 of 3

OCC1OC(Nc2ncnc3snnc23)C(O)C1O (stereo not drawn)
T/C (T/C endpoint: mean survival time, dose: 100.0 mg/kg/injection, schedule: Q01DX001 (ip), vehicle: saline): 128 % of control
T/C [11]: 140 % of control
T/C (T/C endpoint: mean survival time, dose: 200.0 mg/kg/injection, schedule: Q01DX001 (ip), vehicle: saline): 125 % of control
T/C (T/C endpoint: mean survival time, dose: 400.0 mg/kg/injection, schedule: Q01DX001 (ip), vehicle: saline): 136 % of control [2 of 2 alive]

C[N+](C)(C)CCOC(=O)c1ccc(CBr)c(CBr)c1
survivor count [11]: 0 of 6
survivor count (T/C endpoint: mean survival time, dose: 200.0 mg/kg/injection, schedule: Q04DX003 (ip), vehicle: saline): 0 of 6
survivor count [5]: 0 of 6

CON(C)CC(O)c1ccccc1 (stereo not drawn)
survivor count [2]: 3 of 6

Reference: PubChem BioAssay AID256 (DTP/NCI, 2004)
